PubChem BioAssay AID1259308, NCATS – 2017

Assay: 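Knock-downs that increase output of a recombinant reporter protein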 (primary screen)
Cells: human HEK293 embryonic kidney cells stably expressing firefly luciferase (HEK-CMV-Luc2-Hygro)
Reagent: single siRNA against human genes, 0.8 pmol siRNA per well
Duration: 72 h
Read-out: 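Luciferase light (ONE-Glo) measured on one replicate plate set and viability (CellTiter-Glo) on the other, scaled to a negative control siRNA, with robust z-scores and luciferase per cell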
Scale: total luciferase, z-score and total luciferase, % of control: higher = more reporter protein produced; luciferase per cell, z-score: higher = more reporter output per viable cell; viable cells, % of control: higher = more viable cells
Active means: 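An siRNA counts as active if its total luciferase robust z-score exceeds 3; genes with two or more such siRNAs out of three were retested with fresh siRNAs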
Calls: active = raised luciferase; inactive = no rise
The deposit covers about 59,000 reagents; this is a random part of them. About 1,510 of them (2.6%) count as active. 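Calls use total luciferase alone and ignore viability, so some active siRNAs may act by altering cell number.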 Reagents against one gene are numbered here.

| target gene | siRNA no. | total luciferase, z-score | total luciferase, % of control | luciferase per cell, z-score | viable cells, % of control | outcome |
| --- | --- | --- | --- | --- | --- | --- |
| MAST4 | 1 | 0.654 | 94.9 | 1.36 | 74.2 | inactive |
| MAST4 | 2 | -0.511 | 71.7 | -0.974 | 104 | inactive |
| MAST4 | 3 | -0.0978 | 79.9 | -0.251 | 95.4 | inactive |
| A2M | 1 | -0.739 | 67.2 | -0.378 | 82.9 | inactive |
| A2M | 2 | -0.429 | 73.3 | -0.9 | 104 | inactive |
| A2M | 3 | 1.36 | 109 | 1.16 | 89.7 | inactive |
| MARCHF4 | 1 | 0.164 | 85.1 | -0.374 | 105 | inactive |
| MARCHF4 | 2 | -1.01 | 61.9 | -0.408 | 77 | inactive |
| MARCHF4 | 3 | 0.648 | 94.8 | 0.577 | 91 | inactive |
| ACOT2 | 1 | 0.238 | 86.6 | 0.672 | 81.1 | inactive |
| ACOT2 | 2 | -0.00406 | 81.8 | -0.732 | 111 | inactive |
| ACOT2 | 3 | 1.68 | 115 | 0.999 | 99 | inactive |
| CIST1 | 1 | -0.815 | 65.7 | 0.322 | 67.4 | inactive |
| CIST1 | 2 | 2.95 | 141 | 1.41 | 108 | inactive |
| CIST1 | 3 | -1.45 | 53 | 0.7 | 49.3 | inactive |
| ADRA2C | 1 | 0.734 | 96.5 | 1.43 | 74 | inactive |
| ADRA2C | 2 | -0.209 | 77.7 | -0.397 | 96.4 | inactive |
| ADRA2C | 3 | 2.9 | 140 | 2.51 | 80.5 | inactive |

4 entries from above, reformatted.
{"target gene":"CIST1","siRNA no.":2,"total luciferase, z-score":2.95,"total luciferase, % of control":141,"luciferase per cell, z-score":1.41,"viable cells, % of control":108,"outcome":"inactive"}
{"target gene":"CIST1","siRNA no.":3,"total luciferase, z-score":-1.45,"total luciferase, % of control":53,"luciferase per cell, z-score":0.7,"viable cells, % of control":49.3,"outcome":"inactive"}
{"target gene":"ADRA2C","siRNA no.":1,"total luciferase, z-score":0.734,"total luciferase, % of control":96.5,"luciferase per cell, z-score":1.43,"viable cells, % of control":74,"outcome":"inactive"}
{"target gene":"ADRA2C","siRNA no.":2,"total luciferase, z-score":-0.209,"total luciferase, % of control":77.7,"luciferase per cell, z-score":-0.397,"viable cells, % of control":96.4,"outcome":"inactive"}

More entries follow:
| target gene | siRNA no. | total luciferase, z-score | total luciferase, % of control | luciferase per cell, z-score | viable cells, % of control | outcome |
| --- | --- | --- | --- | --- | --- | --- |
| WDR59 | 1 | 0.844 | 98.7 | 1.96 | 65.8 | inactive |
| WDR59 | 2 | -1.12 | 59.6 | -0.868 | 83.7 | inactive |
| WDR59 | 3 | -0.646 | 69 | 0.127 | 74.6 | inactive |
| FAM27E5 | 1 | 0.986 | 102 | 0.324 | 104 | inactive |
| FAM27E5 | 2 | -0.371 | 74.5 | 0.131 | 80.4 | inactive |
| FAM27E5 | 3 | 0.0333 | 82.5 | 0.0775 | 90.4 | inactive |
| GRID2 | 1 | -0.771 | 66.6 | -1.29 | 104 | inactive |
| GRID2 | 2 | 0.697 | 95.8 | 0.222 | 101 | inactive |
| GRID2 | 3 | -0.323 | 75.5 | -0.122 | 87.1 | inactive |
| ONECUT1 | 1 | 0.0283 | 82.4 | 0.956 | 71.6 | inactive |
| ONECUT1 | 2 | 0.138 | 84.6 | -0.106 | 97.2 | inactive |
| ONECUT1 | 3 | 2.52 | 132 | 1.76 | 92.9 | inactive |
| EXTL2 | 1 | 0.133 | 84.5 | 0.309 | 87.1 | inactive |
| EXTL2 | 2 | -2.11 | 39.9 | -2.73 | 91.6 | inactive |
| EXTL2 | 3 | 1.21 | 106 | 0.396 | 107 | inactive |
| ZNF621 | 1 | -1.01 | 61.8 | -1.07 | 91.7 | inactive |
| ZNF621 | 2 | 0.858 | 98.9 | 0.319 | 102 | inactive |
| ZNF621 | 3 | 7.21 | 225 | 3.71 | 94.8 | active |
| DDX10 | 1 | -0.813 | 65.7 | -0.155 | 76.5 | inactive |
| DDX10 | 2 | -1.74 | 47.2 | -1.87 | 86.5 | inactive |
| DDX10 | 3 | -1.2 | 58.1 | -0.698 | 78 | inactive |
